Results on two substances are retold here after paper PMC7414724.

Sequences of proteins named here, by UniProt entry; tags and fusion partners are left off. A change or cut given only in a name is not applied to a line headed by its entry.
UniProt Q9UER7: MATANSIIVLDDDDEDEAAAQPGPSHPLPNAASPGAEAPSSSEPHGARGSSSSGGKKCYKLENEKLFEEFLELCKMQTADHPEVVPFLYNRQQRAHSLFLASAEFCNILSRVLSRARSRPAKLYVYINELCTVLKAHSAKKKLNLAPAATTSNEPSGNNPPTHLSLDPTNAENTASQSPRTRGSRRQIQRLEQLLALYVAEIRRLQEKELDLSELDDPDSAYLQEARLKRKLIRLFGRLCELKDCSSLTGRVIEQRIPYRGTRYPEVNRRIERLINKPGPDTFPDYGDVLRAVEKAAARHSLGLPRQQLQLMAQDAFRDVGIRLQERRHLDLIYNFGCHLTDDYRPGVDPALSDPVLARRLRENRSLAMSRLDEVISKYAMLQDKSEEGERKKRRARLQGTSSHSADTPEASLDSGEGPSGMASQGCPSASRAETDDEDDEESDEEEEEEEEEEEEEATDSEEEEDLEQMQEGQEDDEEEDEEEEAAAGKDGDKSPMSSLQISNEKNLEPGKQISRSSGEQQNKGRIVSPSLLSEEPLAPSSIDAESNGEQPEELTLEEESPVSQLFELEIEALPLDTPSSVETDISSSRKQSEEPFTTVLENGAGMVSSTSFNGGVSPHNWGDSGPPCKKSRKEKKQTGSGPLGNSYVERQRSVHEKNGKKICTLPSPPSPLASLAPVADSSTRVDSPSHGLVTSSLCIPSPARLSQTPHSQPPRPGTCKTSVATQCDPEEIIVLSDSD
UniProt P03126: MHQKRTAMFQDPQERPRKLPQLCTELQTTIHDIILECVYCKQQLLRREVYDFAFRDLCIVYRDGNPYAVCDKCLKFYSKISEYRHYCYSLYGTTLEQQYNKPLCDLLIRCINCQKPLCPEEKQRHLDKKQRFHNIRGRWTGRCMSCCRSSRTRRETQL

Results are given in words; binding and its absence hold for the method and conditions named. In cells and extracts the contact can be indirect. Some results given as binding are weak or reduced against the parent protein; the word gives no strength.

Assay [1] has as its target Death domain-associated protein (Daxx) (human (endogenous in C33A)) (UniProt Q9UER7). Nature of the assay: co-IP; lysate of C33A cells 48 h after pcDNA3.1(+)/HPV16 E6 transfection; anti-Daxx or anti-E6 antibody at 4 °C overnight, protein A/G agarose, 4 washes with lysate buffer; western blot with anti-Daxx or anti-E6; IgG antibody as negative control. A general note: A western blot detects proteins with antibodies after separation by electrophoresis.

The target of assay [2] is HPV16 E6 protein (human papillomavirus type 16) (UniProt P03126). Described as above.

As to “HPV16 E6 protein (from UniProt P03126 1-158)”, the binding result in assay [1] was “binds”.

As to “Death domain-associated protein (Daxx) (from UniProt Q9UER7 1-740)”, the binding result in assay [2] is on record as “binds”.
